{"source": "PubChem BioAssay AID1508597 (Cure First, 2020)", "aim": "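Genes whose silencing sensitises or protects ovarian cancer cells against rucaparib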 (primary screen)", "system": "human ovarian carcinoma lines grown from tumours: OCI-P5x (papillary serous) and OCI-C5x (clear cell)", "reagent": "siRNA pool against human genes, 1.25 pmol siRNA per well", "time to read-out": "72 h or 96 h, depending on the cell culture", "challenge": "rucaparib 20 µM (about IC30) or vehicle, present until read-out", "rucaparib or vehicle": "Vehicle", "cell line": "OCI-P5x (serous)", "read-out": "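Luminescent ATP-based viability assay read 72 or 96 h after transfection, depending on culture, given as normalised percent viability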", "scale": "viability, normalised: higher = more viable cells remaining", "hit rule": "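a well counts as a hit if its normalised viability is under 80 percent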", "calls": "active = viability under 80%; inactive = viability 80% or more", "note": "Shown is a random part of the about 2,100 reagents, under one of the conditions tested. 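Calls flag viability under 80% in either arm, not effects specific to rucaparib; the reference for percent is not stated.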 Unmarked entries are inactive. A reagent listed more than once was tested more than once; the source does not tell the runs apart. Not given: the 100% reference."}
{"Target gene": "PHF5A", "PubChem SID": "SID405527155", "technical replicate": "1", "viability, normalised (%)": "45.5 (active)"}
{"Target gene": "PHF5A", "PubChem SID": "SID405527155", "technical replicate": "2", "viability, normalised (%)": "44.3 (active)"}
{"Target gene": "PHF5A", "PubChem SID": "SID405527155", "technical replicate": "3", "viability, normalised (%)": 86.6}
{"Target gene": "CHD1", "PubChem SID": "SID405528099", "technical replicate": "1", "viability, normalised (%)": 86.5}
{"Target gene": "CHD1", "PubChem SID": "SID405528099", "technical replicate": "2", "viability, normalised (%)": 84.9}
{"Target gene": "CHD1", "PubChem SID": "SID405528099", "technical replicate": "3", "viability, normalised (%)": 85.9}
{"Target gene": "ASXL1", "PubChem SID": "SID405527993", "technical replicate": "1", "viability, normalised (%)": "70.6 (active)"}
{"Target gene": "ASXL1", "PubChem SID": "SID405527993", "technical replicate": "2", "viability, normalised (%)": 99.3}
{"Target gene": "ASXL1", "PubChem SID": "SID405527993", "technical replicate": "3", "viability, normalised (%)": "78.7 (active)"}
{"Target gene": "TRIM33", "PubChem SID": "SID405526585", "technical replicate": "1", "viability, normalised (%)": 98.4}
{"Target gene": "TRIM33", "PubChem SID": "SID405526585", "technical replicate": "1", "viability, normalised (%)": "75 (active)"}
{"Target gene": "TRIM33", "PubChem SID": "SID405526585", "technical replicate": "2", "viability, normalised (%)": "59 (active)"}
{"Target gene": "TRIM33", "PubChem SID": "SID405526585", "technical replicate": "2", "viability, normalised (%)": "72.9 (active)"}
{"Target gene": "TRIM33", "PubChem SID": "SID405526585", "technical replicate": "3", "viability, normalised (%)": 84.3}
{"Target gene": "TRIM33", "PubChem SID": "SID405526585", "technical replicate": "3", "viability, normalised (%)": 83.8}
{"Target gene": "NME3", "PubChem SID": "SID405527079", "technical replicate": "1", "viability, normalised (%)": "49.6 (active)"}
{"Target gene": "NME3", "PubChem SID": "SID405527079", "technical replicate": "1", "viability, normalised (%)": "76.6 (active)"}
{"Target gene": "NME3", "PubChem SID": "SID405527079", "technical replicate": "2", "viability, normalised (%)": "60.5 (active)"}
{"Target gene": "NME3", "PubChem SID": "SID405527079", "technical replicate": "2", "viability, normalised (%)": "68.4 (active)"}
{"Target gene": "NME3", "PubChem SID": "SID405527079", "technical replicate": "3", "viability, normalised (%)": "77.5 (active)"}
{"Target gene": "NME3", "PubChem SID": "SID405527079", "technical replicate": "3", "viability, normalised (%)": "45.6 (active)"}

Part of the list above, reformatted:
Target gene,PubChem SID,technical replicate,"viability, normalised (%)"
NME3,SID405527079,1,76.6 (active)
NME3,SID405527079,2,60.5 (active)

More entries follow:
{"Target gene": "NTPCR", "PubChem SID": "SID405527696", "technical replicate": "1", "viability, normalised (%)": "73.1 (active)"}
{"Target gene": "NTPCR", "PubChem SID": "SID405527696", "technical replicate": "2", "viability, normalised (%)": "70.8 (active)"}
{"Target gene": "NTPCR", "PubChem SID": "SID405527696", "technical replicate": "3", "viability, normalised (%)": "63.9 (active)"}
{"Target gene": "CDK17", "PubChem SID": "SID405527512", "technical replicate": "1", "viability, normalised (%)": 96.4}
{"Target gene": "CDK17", "PubChem SID": "SID405527512", "technical replicate": "2", "viability, normalised (%)": 82.8}
{"Target gene": "CDK17", "PubChem SID": "SID405527512", "technical replicate": "3", "viability, normalised (%)": 105}
{"Target gene": "MAP3K12", "PubChem SID": "SID405527636", "technical replicate": "1", "viability, normalised (%)": 95.8}
{"Target gene": "MAP3K12", "PubChem SID": "SID405527636", "technical replicate": "2", "viability, normalised (%)": 83.5}
{"Target gene": "MAP3K12", "PubChem SID": "SID405527636", "technical replicate": "3", "viability, normalised (%)": 88.9}
{"Target gene": "MBD1", "PubChem SID": "SID405526969", "technical replicate": "1", "viability, normalised (%)": "60.9 (active)"}
{"Target gene": "MBD1", "PubChem SID": "SID405526969", "technical replicate": "2", "viability, normalised (%)": 87.4}
{"Target gene": "MBD1", "PubChem SID": "SID405526969", "technical replicate": "3", "viability, normalised (%)": 84.3}
